# At least one compound was matched to its structure with a doubt left.
# Key:
# [1] = tested on: pain after surgical removal of impacted third molars; experiment: Phase 2 dental pain study: pain relief, 5-point categorical scale (TOTPAR, pain relief score, peak pain relief, time to peak pain relief); type: in vivo, human; conditions: ITT; result in words
# Description: This was a phase-2, multicenter, randomized, double-blind, single-dose, parallel-group, active- and placebo-controlled study to evaluate the efficacy and safety of Indomethacin Nanoformulation Capsules (20 mg and 40 mg) in subjects with postoperative dental pain.
# On Day 1, eligible subjects underwent extraction of 2 or more third molars, at least 1 of which had to be a fully or partially bone-impacted mandibular molar. If only 2 molars were removed, then they had to be ipsilateral.
# (§1) Subjects assessed their baseline pain intensity (VAS) before receiving study drug (predose, Time 0) and their pain intensity (VAS) and pain relief (5-point categorical scale) at 15, 30, and 45 minutes and 1, 1.5, 2, 3, 4, 5, 6, 7, and 8 hours after Time 0 and immediately before the first dose of rescue medication. The 2-stopwatch method was used to record the time to perceptible and time to meaningful pain relief, respectively. Acetaminophen (1000 mg) was permitted as the initial rescue medication. Subjects were encouraged to wait at least 60 minutes after receiving study drug before taking rescue medication. […]
# The primary efficacy endpoint was the sum of total pain relief (TOTPAR) over 0 to 8 hours (TOTPAR-8) after Time 0. The TOTPAR was calculated using the pain relief score (5-point categorical scale) at each follow-up time point weighted (multiplied) using the amount of time since the prior assessment. […]
# [2] = tested on: pain after surgical removal of impacted third molars; experiment: Phase 2 dental pain study: 2-stopwatch method (time to onset of analgesia, first perceptible and meaningful pain relief); type: in vivo, human; conditions: result in words
# Description: as §1
# For each time-to-event endpoint, the Kaplan-Meier method was used to evaluate the treatment effect. Time to onset of analgesia (measured as time to perceptible pain relief confirmed by meaningful pain relief) was based on data collected using the 2-stopwatch method. […] A summary table provided the number of subjects analyzed, the number of subjects censored, estimates for the quartiles, and 95% confidence intervals (CIs) for the estimated median. […]
compound,measurement,setting,value
Cc1ccc(-c2cc(C(F)(F)F)nn2-c2ccc(S(N)(=O)=O)cc2)cc1 [Celecoxib],TOTPAR-8 mean score compared with the placebo group,[1],statistically significantly greater than in the placebo group
same,Mean time to first perceptible pain relief compared with the placebo group,[2],statistically significantly shorter than in the placebo group
same,Mean time to meaningful pain relief compared with the placebo group,[2],statistically significantly shorter than in the placebo group

# Reference: patent US8992982B2, “Formulation of indomethacin” (Iceutica Pty Ltd., priority 2009, dated 2015)
